No constants are given. Whether binding was seen depends on the method and setting. Some entries that bind do so weakly or less than the wild type. Where a sequence is shown, tags or fusion partners need not be part of it.
How the values were obtained:
[1] = biological target: mutant GAL4-Pim-1 fusion protein (GAL4 DNA-binding domain fused with kinase-deficient K67M Pim-1) (murine) (UniProt P06803); assay: two-hybrid; mating assay, modified two-hybrid with baits fused to the GAL4 DNA-binding domain and VP16-B19 as prey; growth of diploid strains on selective medium lacking histidine (Figure 1A)
[2] = biological target: wild-type GAL4-Pim-1 fusion protein (GAL4 DNA-binding domain fused with wild-type Pim-1) (murine) (UniProt P06803); assay: as above
[3] = biological target: kinase-deficient K67M mutant of Pim-1 fused to the LexA DNA-binding domain (murine) (UniProt P06803); assay: two-hybrid; library screen; bait Pim-1 K67M fused to the LexA DNA-binding domain, prey cDNA library of EBV-transformed human lymphocytes fused to the VP16 activation domain; growth on histidine-deficient plates with 25 mM 3-aminotriazole and beta-galactosidase

Protein sequences, listed by entry. Tags and fused reporters are not part of them. Lines headed by an entry give the natural chain unless they say otherwise; changes in a name come on top.
UniProt P06803: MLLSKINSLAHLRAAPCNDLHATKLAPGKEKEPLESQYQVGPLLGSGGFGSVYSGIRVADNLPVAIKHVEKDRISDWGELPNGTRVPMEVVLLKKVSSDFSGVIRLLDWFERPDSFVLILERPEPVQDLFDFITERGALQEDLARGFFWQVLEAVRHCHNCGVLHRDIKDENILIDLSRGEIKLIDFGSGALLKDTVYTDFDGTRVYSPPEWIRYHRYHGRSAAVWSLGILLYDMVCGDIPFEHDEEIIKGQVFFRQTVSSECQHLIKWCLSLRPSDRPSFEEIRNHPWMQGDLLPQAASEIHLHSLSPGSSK

Measured: binding

B1: VP16-B19 fusion protein (amino acids 264-404 of human RUNX3 fused to the VP16 activation domain) (domain or fragment, UniProt Q13761 264-404)
chain: PDPRMHYPGAMSAAFPYSATPSGTSISSLSVAGMPATSRFHHTYLPPPYPGAPQNQSGPFQANPSPYHLYYGTSSGSYQFSMVAGSSSGGDRSPTRMLASCTSSAASVAAGNLMNPSLGGQSDGVEADGSHSNSPTALSTP
binds: [1] | [2] | [3]
